Data published in patent US6727278B1, “Pharmaceutically active agents that impede amyloid formation in vivo” (DMS Pharmaceutical Inc., priority 1986, dated 2004).

Legend:
human DMS = assay: In vivo assay: amyloid formation induced by intracerebral injection of human DMS with the compound, Congo Red histology; set-up: species or system Male Wistar rats; details: for Mean Lesion Area Composed of CBADs: percentage of lesion area, ** = significant decrease from untreated controls
plasma proteins = details: cited from earlier work
[1] = cited from earlier work

With `COC(=O)C1=C(C)NC(C)=C(C(=O)OC)C1c1ccccc1[N+](=O)[O-]` [Procardia, Nifedipine] the “Mean Number of CBADs Per Animal” value (human DMS; 10^−2M) was 4, the “Mean Lesion Area Composed of CBADs” value (human DMS; 10^−2M) was 0.2** and the “Mean Number of CBADs Per Animal” value (human DMS; 10^−5 − 10^−6M, CBADs = Congophilic Birefringent Amyloid Deposits) was 88. For the same molecule, the “Mean Lesion Area Composed of CBADs” value (human DMS; 10^−5 − 10^−6M) was 7.6, the “bound to plasma proteins” value (plasma proteins) was 98% and the “absorption by sublingual administration” value [1] was “rapidly and completely absorbed”.
